Results are given in words; binding and its absence hold for the method and conditions named. A result given as binding can be weak or reduced; the word gives no strength. Tags and fused reporters may be left off the sequences shown.
Target: BD-AtHB23ΔAHA (Arabidopsis thaliana)
Test: two-hybrid

binding: binds
B1: AD-MYB68 (protein, UniProt Q9FHP1 1-477)
chain: MMEIAYQPRIDSEIESLVERINPPRVCVDNDSDPECTLIKVDSANKYGILLDMVQVLADLDLVISKCYISSDGEWFMDVFHVTDQLGNKLTDRSLILYIQQAICSSRTGGITKEMQSNLKREVQQRHVSTEHTAFEITGINRPGLLSEISAVLSDIGCHVTAAVAWTHHERAAMVIYLEDGFNGGPIIDPIRKAQVKDHLDTVMEAHHIVGDVSHVVVRVVEAKGVPVGWAHTERRLHELMYGEGDYENCFDCDCFGDRCDALWRGRCERIHVTIEACNGYSMVNVKCRDRPKLLFDTVCALKELQFVVFHAVAGAKGSTAEQEYFIRKKNGGTLETEGQRERLRHCLVAAISRRASQGLKLEIRTENKMGLLSDVTRVVRENGLSITRAEMCTQGEIAVGSFYVTDVNGGETGPSEVEAVVRELGGAVVSAVKGVGMMPRRIGSTSDSVEQDKAKSSIGRMFWSKLERLSTSIRSL

Reference: paper doi:10.1101/2022.12.18.520920
